Results: patent US12390447B2, “Sirtuin 6 protein deacylase (SIRT6) activators” (Wisconsin Alumni Research Foundation, priority 2019, dated 2025)
At least one compound was matched to its structure with a doubt left.

Sequences of proteins named here, by UniProt entry; tags and fusion partners are left off.
UniProt Q8N6T7, whole entry: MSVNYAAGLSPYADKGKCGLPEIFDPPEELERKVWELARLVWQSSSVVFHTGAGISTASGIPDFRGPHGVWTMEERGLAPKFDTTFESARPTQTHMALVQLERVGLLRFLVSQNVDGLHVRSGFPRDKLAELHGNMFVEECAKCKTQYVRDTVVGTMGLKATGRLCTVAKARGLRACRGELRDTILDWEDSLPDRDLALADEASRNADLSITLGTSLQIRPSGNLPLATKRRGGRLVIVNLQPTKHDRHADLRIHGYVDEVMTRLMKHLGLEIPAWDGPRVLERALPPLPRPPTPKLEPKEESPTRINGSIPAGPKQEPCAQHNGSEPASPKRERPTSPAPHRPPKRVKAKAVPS

Legend:
SIRT6 [1] = target: T1, SIRT6 (Homo sapiens, UniProt Q8N6T7); experiment: Small molecule SIRT6 activator screen (H3K9ac peptide deacetylation, HPLC); type: biochemical; conditions: compound 100 μM; SIRT6 1 μM; H3K9ac peptide 20 μM; 0.5 mM NAD+
Experimental: Mastermix containing SIRT6, buffer, and H3K9ac peptide were distributed to wells using Microflex peristaltic dispenser (Beckman). Plates were spun and preheated to 37° C. before addition of NAD^+ using peristaltic dispenser. After 60 minutes reactions were quenched with 2% TFA final using peristaltic dispenser then sealed and spun again before in-house HPLC separation and quantification of substrate and product peptides. Reaction conditions were 1 μM SIRT6, 0.5 mM NAD^+, […] (4-16), 20 mM potassium phosphate pH 7.5, 10% DMSO, and either 10 or 100 μM compound determined by 10-fold dilution of stock library concentration.
All sirtuin deacylation assays were carried out at 37° C. in 20 mM potassium phosphate pH 7.5 with 0.5 mM NAD^+, 10% DMSO, and 20 μM H3K9ac or H3K9myr peptides, unless otherwise noted in legend, and quenched by the addition of 2% TFA final. […] In these cases, specific activities were determined and either reported as is or as fold-activation of specific activity. […] Deacetylation reactions were analyzed using a gradient of 33-100% B (30% acetonitrile with 0.05% TFA) in 8 min at 1.6 mL min^−1. Demyristoylation reactions were analyzed using a gradient of 3 to 100% B (acetonitrile with 0.05% TFA) in 10 min at 1.6 mL min^−1. The product and substrate peaks were quantified and ratio of these allowed for quantification of product formation.

SIRT6 [2] = target: T1, SIRT6; experiment: SIRT6 deacetylation of H3K9ac peptide, fold-activation versus activator concentration; type: biochemical; conditions: for FAmax (maximum fold-activation): SIRT6 1 μM, sigmoidal curve fit
Experimental: (§1) (1A) Compound libraries BML-2803, BML-2800, and an additional set of 178 molecules were screened at 100 μM for their ability to stimulate SIRT6 (1 μM) deacetylation of H3K9ac peptide (20 μM) in the presence of 0.5 mM NAD^+. SIRT6 activity was measured by HPLC quantification of H3K9ac and deacetylated product (inset) and fold activations relative to DMSO control were determined and compiled. (1B) Fold-activation of SIRT6 (1 μM) determined in the presence of either 0-400 μM CL4, 0-150 μM TTNPB, 0-100 μM Lysophosphatidic acid (LPA), or 0-200 μM linoleoylglycine (LGly). Maximum fold-activation and EC50 determined by sigmoidal curve fit. (1C) Steady-state kinetic analysis of SIRT6 (1 μM) deacetylation was conducted with 0-250 μM H3K9ac peptide in the presence of 100 μM CL4, 50 μM TTNPB, 50 μM LPA, or 50 μM LGly. Constants Km, H3K9ac and kcat were determined by fitting data to Michaelis-Menten equation. (1D) Fold-activations of SIRT1 (0.1 μM), SIRT2 (0.2 μM), SIRT3 (1 μM), SIRT5 (2 μM), and SIRT6 (1 μM) determined in the presence of CL4 (100 μM), TTNPB (50 μM), and LPA (50 μM) relative to DMSO control against 20 μM H3K9ac peptide and 0.5 mM NAD^+. Mean values reported with error bars representing standard deviation of at least three replicates.
(§2) All sirtuin deacylation assays were carried out at 37° C. in 20 mM potassium phosphate pH 7.5 with 0.5 mM NAD^+, 10% DMSO, and 20 μM H3K9ac or H3K9myr peptides, unless otherwise noted in legend, and quenched by the addition of 2% TFA final. […] In these cases, specific activities were determined and either reported as is or as fold-activation of specific activity. Deacylation reactions were analyzed by reversed phase high-performance liquid chromatography on a Kinetex C18 column (100 Å, 100×4.6 mm, 2.6 μm, Phenomenex) by monitoring the formation of the deacylated product at 214 nm. Deacetylation reactions were analyzed using a gradient of 33-100% B (30% acetonitrile with 0.05% TFA) in 8 min at 1.6 mL min^−1. Demyristoylation reactions were analyzed using a gradient of 3 to 100% B (acetonitrile with 0.05% TFA) in 10 min at 1.6 mL min^−1. […]

SIRT6 [3] = target: T1, SIRT6; experiment: Steady-state kinetic analysis of SIRT6 deacetylation (Michaelis-Menten); type: biochemical; conditions: in the presence of 100 μM CL4, 50 μM TTNPB, 50 μM LPA or 50 μM LGly
Experimental: as §1, with “FIGS. 1A-F illustrate the identification of novel SIRT6 activators. (1A)” for “(1A)”, “(1C) Steady-state kinetic analysis of SIRT6 (1 μM) deacetylation was conducted with 0-250 μM H3K9ac peptide in the presence of 100 μM CL4, 50 μM TTNPB, 50 μM LPA, or 50 μM LGly.” left out, “Mean values reported with error bars representing standard deviation of at least three replicates.” left out
FIGS. 2A-D show results characterizing SIRT6 activator CL5D. […] (2B) SIRT6 demyristoylase activity determined in the presence of 0-25 μM H3K9myr peptide, 0.5 mM NAD^+ and 5% DMSO (•), 12.5 μM CL5D (▪), 25 μM CL5D (♦), and 50 μM CL5D (▴). […]

SIRT1 = target: T2, SIRT1 (Homo sapiens, UniProt Q96EB6); experiment: SIRT1 deacetylase activity against H3K9ac peptide; type: biochemical; conditions: 400 μM compound
T2 sequence (Q96EB6 1-747): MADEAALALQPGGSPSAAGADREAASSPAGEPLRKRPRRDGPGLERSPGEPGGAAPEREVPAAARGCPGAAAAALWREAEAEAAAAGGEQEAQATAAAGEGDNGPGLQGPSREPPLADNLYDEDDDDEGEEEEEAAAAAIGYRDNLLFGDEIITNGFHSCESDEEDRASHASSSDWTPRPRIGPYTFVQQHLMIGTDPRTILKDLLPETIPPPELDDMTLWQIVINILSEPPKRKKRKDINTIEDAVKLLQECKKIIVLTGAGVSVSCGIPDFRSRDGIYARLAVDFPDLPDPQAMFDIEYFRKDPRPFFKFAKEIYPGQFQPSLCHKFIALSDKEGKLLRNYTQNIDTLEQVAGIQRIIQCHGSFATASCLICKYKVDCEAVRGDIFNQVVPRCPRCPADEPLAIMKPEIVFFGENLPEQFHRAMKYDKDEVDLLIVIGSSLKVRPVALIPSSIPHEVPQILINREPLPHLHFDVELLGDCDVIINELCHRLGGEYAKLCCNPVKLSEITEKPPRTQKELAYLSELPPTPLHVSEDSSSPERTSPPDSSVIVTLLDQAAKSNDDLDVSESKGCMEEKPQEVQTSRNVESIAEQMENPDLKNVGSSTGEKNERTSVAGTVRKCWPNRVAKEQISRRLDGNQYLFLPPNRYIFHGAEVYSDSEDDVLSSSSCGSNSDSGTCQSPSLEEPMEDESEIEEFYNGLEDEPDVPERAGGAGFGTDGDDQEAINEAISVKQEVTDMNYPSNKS
Experimental: as §1, with “FIGS. 1A-F illustrate the identification of novel SIRT6 activators. (1A)” for “(1A)”, “(1C) Steady-state kinetic analysis of SIRT6 (1 μM) deacetylation was conducted with 0-250 μM H3K9ac peptide in the presence of 100 μM CL4, 50 μM TTNPB, 50 μM LPA, or 50 μM LGly.” left out, “Mean values reported with error bars representing standard deviation of at least three replicates.” left out
All sirtuin deacylation assays were carried out at 37° C. in 20 mM potassium phosphate pH 7.5 with 0.5 mM NAD^+, 10% DMSO, and 20 μM H3K9ac or H3K9myr peptides, unless otherwise noted in legend, and quenched by the addition of 2% TFA final. […] The product and substrate peaks were quantified and ratio of these allowed for quantification of product formation. […]

SIRT2 = target: T3, SIRT2 (Homo sapiens, UniProt Q8IXJ6); experiment: SIRT2 deacetylase activity against H3K9ac peptide; type: biochemical; conditions: for specificity for SIRT6 over SIRT2: CL4 100 μM, TTNPB 50 μM, LPA 50 μM
T3 sequence (Q8IXJ6 1-389): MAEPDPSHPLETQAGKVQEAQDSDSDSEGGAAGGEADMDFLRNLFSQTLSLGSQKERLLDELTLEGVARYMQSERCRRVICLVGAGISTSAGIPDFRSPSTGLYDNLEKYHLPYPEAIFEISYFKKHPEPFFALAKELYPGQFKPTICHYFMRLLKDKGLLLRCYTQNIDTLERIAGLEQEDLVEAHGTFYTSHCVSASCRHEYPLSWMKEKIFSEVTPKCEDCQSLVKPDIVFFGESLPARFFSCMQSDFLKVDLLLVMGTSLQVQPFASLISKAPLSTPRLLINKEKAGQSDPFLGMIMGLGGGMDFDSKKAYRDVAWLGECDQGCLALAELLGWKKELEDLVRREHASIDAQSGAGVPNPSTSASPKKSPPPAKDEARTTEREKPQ
Experimental: as §1, with “FIGS. 1A-F illustrate the identification of novel SIRT6 activators. (1A)” for “(1A)”, “Mean values reported with error bars representing standard deviation of at least three replicates.” left out
as §2

[4] = Micelle formation with fluorescent membrane probe diphenylhexatriene (DPH); type: physicochemical

| F.A. (fold-activation of SIRT6 relative to DMSO control) (SIRT6 [1]) [fold] | SIRT6 deacetylase activity at high activator concentration (SIRT6 [2]; 400 μM compound) | FAmax (maximum fold-activation) (SIRT6 [2]) [fold] | kcat (SIRT6 [3]) [s^−1 × 10^−3] | SIRT1 deacetylase activity at high activator concentration (SIRT1) | SIRT2 deacetylase activity at high activator concentration (SIRT2; 400 μM compound) | specificity for SIRT6 over SIRT2 (SIRT2) [fold] | concentration at which micelle formation was observed [4] [µM] | SMILES |
| --- | --- | --- | --- | --- | --- | --- | --- | --- |
| 48 | inhibited | 30 ± 0.5 | 3.2 ± 0.1 | inhibited | inhibited | > 30 | > 50 | CCCCCCCC/C=C\CCCCCCCC(=O)OCC(O)COP(=O)(O)O (stereo not drawn) [Lysophosphatidic acid, oleoyl-lysophosphatidic acid] |
| 21 | – | 15 ± 0.8 | 2.8 ± 0.1 | – | – | > 4 | – | C/C(=C\c1ccc(C(=O)O)cc1)c1ccc2c(c1)C(C)(C)CCC2(C)C [TTNPB, arotinoid acid] |
